Data: patent publication US20160168118A1, “N-(5-QUINOLIN-6-YL)PYRIDIN-3-YL) BENZSULFAMIDE DERIVATIVES, PREPARATION METHOD AND THERAPEUTIC USE THEREOF” (SECOND MILITARY MEDICAL UNIVERSITY, PLA, priority 2012, published 2016)
At least one structure is not confirmed: it was looked up by name or label, or the drawing left a doubt.

Tested on: five human tumor cells
Experiment: MTT assay, five human tumor cells (summary in words)
Assay type: cell-based
Conditions: A549, HCT116, HepG2, ZR-75-30, U87MG
Experimental: 1. Sample preparation: After dissolved with DMSO (Merck), PBS (−) was added to make 1000 μg/ml solution or a uniform suspension, and then diluted with PBS (−) containing the DMSO. Doxorubicin (DOX) was used as the positive control drug.
2. Cell Line • 1) A549 (human lung cancer cells); 2) HCT116 (human colon cancer cells); 3) HepG2 (human hepatoma cells); 4) ZR-75-30 (human breast cancer cells); 5) U87MG (human brain star glioblastoma)
DMEM+5-10% FBS+double resistant
MTT assay. 100 μl cell suspension was added at a concentration of 4˜5×10^4 cells/ml to each well of a 96-well plate, and was set at 37° C., 5% CO2 in the incubator. After 24 h, the sample solution was added, 10 μl/hole, double wells were set, 37° C., acting for 72 h at 5% CO2. […] of 5 mg/ml was added to each well, the dissolving liquid was added after acted for 4 h, 100 μl/hole, kept in the incubator, and read 570 nm OD with MK-2 automatic microplate reader after dissolution.

**Q.** With `COc1ncc(-c2ccc3nccc(-n4cncn4)c3c2)cc1NS(=O)(=O)c1ccc(F)cc1F` [Compound 1, N-(5-(4-(1H-1,2,4-triazole-1-yl)quinolin-6-yl)-2-methoxypyridine-3-yl)-2,4-difluorobenzenesulfonamide] as the compound, how does the “in vitro proliferation inhibition (in words)” value read?
**A.** The value was “high in vitro proliferation inhibition”.
